These are yes or no findings as the source states them, for the method shown. For some of these results: Binding can be weak; no strength is given. Where a sequence is shown, tags or fusion partners need not be part of it.

The text below walks through data of PMC7867191.

What all share (assay): two-hybrid; yeast strain Y2H Gold; pGBKT7 and pGADT7 fusions; growth on SD/-Trp-Leu-His and SD/-Trp-Leu-His-Ade dropout media
In experiment [1] the target is T1, multiple organellar RNA editing factor 8 (MORF8), yeast two-hybrid fusion (Arabidopsis thaliana) (UniProt Q9LKA5).
T1 sequence: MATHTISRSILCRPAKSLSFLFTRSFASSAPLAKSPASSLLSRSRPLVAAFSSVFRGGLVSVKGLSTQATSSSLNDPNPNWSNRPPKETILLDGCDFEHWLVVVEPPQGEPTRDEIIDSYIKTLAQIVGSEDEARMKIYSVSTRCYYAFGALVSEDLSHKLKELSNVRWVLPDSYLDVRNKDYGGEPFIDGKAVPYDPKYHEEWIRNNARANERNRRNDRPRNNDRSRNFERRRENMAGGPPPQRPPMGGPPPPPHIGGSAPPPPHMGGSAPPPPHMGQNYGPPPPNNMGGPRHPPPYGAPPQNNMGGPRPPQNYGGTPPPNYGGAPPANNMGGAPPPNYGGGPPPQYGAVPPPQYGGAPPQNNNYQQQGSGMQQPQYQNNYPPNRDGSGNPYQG

Experiment [2] concerns the target T2, MORF1, yeast two-hybrid fusion (Arabidopsis thaliana) (UniProt O49429).
T2 sequence: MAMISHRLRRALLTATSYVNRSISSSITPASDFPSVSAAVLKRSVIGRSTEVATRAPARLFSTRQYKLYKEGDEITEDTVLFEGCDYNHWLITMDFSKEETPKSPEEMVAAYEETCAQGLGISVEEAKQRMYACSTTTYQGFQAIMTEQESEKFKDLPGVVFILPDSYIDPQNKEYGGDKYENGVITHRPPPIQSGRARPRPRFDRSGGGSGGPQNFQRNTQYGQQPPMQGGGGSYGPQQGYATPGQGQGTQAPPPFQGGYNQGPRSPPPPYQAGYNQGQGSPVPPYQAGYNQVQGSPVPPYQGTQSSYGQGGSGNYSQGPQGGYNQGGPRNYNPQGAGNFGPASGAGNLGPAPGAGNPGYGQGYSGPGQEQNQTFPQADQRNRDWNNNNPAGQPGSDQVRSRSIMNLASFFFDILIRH

The target in experiment [3] is T3, MORF6, yeast two-hybrid fusion (Arabidopsis thaliana) (UniProt O82169).
T3 sequence: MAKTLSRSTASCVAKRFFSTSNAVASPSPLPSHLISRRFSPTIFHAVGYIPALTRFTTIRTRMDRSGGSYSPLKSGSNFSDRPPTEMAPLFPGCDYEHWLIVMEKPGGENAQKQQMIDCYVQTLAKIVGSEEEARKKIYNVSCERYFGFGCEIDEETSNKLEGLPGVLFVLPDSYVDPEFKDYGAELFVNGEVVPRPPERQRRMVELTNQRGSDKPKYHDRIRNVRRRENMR

The target of experiment [4] is T4, MORF4, yeast two-hybrid fusion (Arabidopsis thaliana) (UniProt O48582).
T4 sequence: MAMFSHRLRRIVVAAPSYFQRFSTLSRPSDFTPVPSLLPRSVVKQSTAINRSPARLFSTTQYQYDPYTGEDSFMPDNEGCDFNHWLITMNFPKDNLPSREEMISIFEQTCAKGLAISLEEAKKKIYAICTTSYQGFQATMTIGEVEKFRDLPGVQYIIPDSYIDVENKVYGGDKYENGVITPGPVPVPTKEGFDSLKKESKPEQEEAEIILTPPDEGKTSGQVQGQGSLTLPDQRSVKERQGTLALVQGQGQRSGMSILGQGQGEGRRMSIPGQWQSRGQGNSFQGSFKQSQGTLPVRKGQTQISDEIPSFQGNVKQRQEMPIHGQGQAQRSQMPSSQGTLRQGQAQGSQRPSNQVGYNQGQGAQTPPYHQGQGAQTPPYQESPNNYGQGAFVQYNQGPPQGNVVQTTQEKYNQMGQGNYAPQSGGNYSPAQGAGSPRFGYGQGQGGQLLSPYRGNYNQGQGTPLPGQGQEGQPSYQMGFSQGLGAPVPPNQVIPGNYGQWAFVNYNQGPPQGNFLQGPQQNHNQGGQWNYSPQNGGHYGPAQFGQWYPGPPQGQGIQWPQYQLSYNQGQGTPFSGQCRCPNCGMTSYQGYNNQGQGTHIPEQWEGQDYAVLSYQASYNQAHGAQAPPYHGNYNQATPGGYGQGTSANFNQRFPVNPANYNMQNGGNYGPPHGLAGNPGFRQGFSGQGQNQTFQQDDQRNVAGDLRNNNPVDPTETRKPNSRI

Experiment [5] addresses T5, MORF3, yeast two-hybrid fusion (Arabidopsis thaliana) (UniProt Q84JZ6).
T5 sequence: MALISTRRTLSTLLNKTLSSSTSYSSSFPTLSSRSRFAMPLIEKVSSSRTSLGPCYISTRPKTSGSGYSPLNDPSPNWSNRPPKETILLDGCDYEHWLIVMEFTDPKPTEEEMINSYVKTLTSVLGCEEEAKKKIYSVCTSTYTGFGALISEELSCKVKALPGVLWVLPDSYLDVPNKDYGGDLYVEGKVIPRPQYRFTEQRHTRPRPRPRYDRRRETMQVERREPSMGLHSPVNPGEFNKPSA

The target in experiment [6] is T6, MORF5, yeast two-hybrid fusion (Arabidopsis thaliana) (UniProt Q9C7Y2).
T6 sequence: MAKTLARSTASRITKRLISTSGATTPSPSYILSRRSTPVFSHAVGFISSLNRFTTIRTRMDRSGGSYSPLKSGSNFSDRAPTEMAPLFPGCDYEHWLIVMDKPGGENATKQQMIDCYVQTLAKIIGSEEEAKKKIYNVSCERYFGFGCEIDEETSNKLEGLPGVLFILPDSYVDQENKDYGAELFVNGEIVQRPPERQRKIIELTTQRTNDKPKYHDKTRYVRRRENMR

For experiment [7], the target named is T7, MORF7, yeast two-hybrid fusion (Arabidopsis thaliana) (UniProt Q9CAH0).
T7 sequence: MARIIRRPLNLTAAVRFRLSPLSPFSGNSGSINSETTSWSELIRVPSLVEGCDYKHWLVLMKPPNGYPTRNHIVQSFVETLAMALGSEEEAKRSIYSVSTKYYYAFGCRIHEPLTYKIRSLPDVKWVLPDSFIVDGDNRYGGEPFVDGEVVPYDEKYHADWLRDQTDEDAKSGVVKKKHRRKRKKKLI

“mitochondrial transcription termination factor 27 (mTERF27), yeast two-hybrid fusion (Arabidopsis thaliana)”: the binding entry in experiment [1] is “binds”; in experiment [2] it was “no binding”; in experiment [3], “no binding”; in experiment [4], “no binding”; in experiment [5], “no binding”; in experiment [6] it was “no binding”. Also, the binding entry in experiment [7] is “no binding”.
